{
  "source": "patent US11419918B2",
  "about": "“Treatment of biliary cirrhosis based on oxyntomodulin analogue GLP-1R/GCGR dual-target agonist peptide” (Shenzhen Turier Biotech Co., Ltd., priority 2017, dated 2022)",
  "test_system": "human hepatic stellate cells (LX-2)",
  "experiment": "In vitro inhibition of hepatic fibrosis: expression of activation marker α-SMA in LX-2 cells (Western Blot, β-actin internal reference)",
  "type": "cell-based",
  "settings": "10.0 μM, 48 hours, negative control (PBS) = 100%",
  "method": "Hepatic stellate cell strain LX-2 was selected to study and observe the effect of different doses of test substances on the expression of LX-2 cell activation marker α-SMA. Hepatic stellate cell LX-2 was laid on 35 mm cell culture plate, cultured with DMEM (high glucose)+10% FBS+1% double-antibody culture medium (Thermo Fisher), placed overnight when the cells grew to 70% convergence at 37° C. and under the condition of 5% CO2, and treated with the above GLP-1R/GCGR dual target agonist polypeptides 1-48 (dissolved in PBS) for 48 hours the next day morning to extract cell protein, carry out Western Blot, and take β-actin as internal reference and analyze the expression quantities of α-SMA and β-actin by a gray level of Image J 1.50i. PBS with the same volume as that in experimental group was added in negative control. […] The integrating gray level of α-SMA/β-actin in the negative control group was 100% to analyze the in vitro inhibition activity of hepatic fibrosis of tested polypeptide.",
  "note": "At least one structure is not confirmed: it was looked up by name or label, or the drawing left a doubt.",
  "data": [
    {"compound": "CCCCCCCCCCCCCCCC(=O)N[C@@H](CCC(=O)NCCCC[C@H](NC(=O)[C@H](C)NC(=O)[C@H](C)NC(=O)[C@H](CCC(N)=O)NC(=O)CNC(=O)[C@H](CCC(=O)O)NC(=O)[C@H](CC(C)C)NC(=O)[C@H](Cc1ccc(O)cc1)NC(=O)[C@H](CO)NC(=O)[C@H](CO)NC(=O)[C@@H](NC(=O)[C@H](CC(=O)O)NC(=O)[C@H](CO)NC(=O)[C@@H](NC(=O)[C@H](Cc1ccccc1)NC(=O)[C@@H](NC(=O)CNC(=O)[C@H](CCC(=O)O)NC(=O)[C@H](C)NC(=O)[C@@H](N)Cc1cnc[nH]1)[C@@H](C)O)[C@@H](C)O)C(C)C)C(=O)N[C@@H](CCC(=O)O)C(=O)N[C@@H](Cc1ccccc1)C(=O)N[C@H](C(=O)N[C@@H](C)C(=O)N[C@@H](Cc1c[nH]c2ccccc12)C(=O)N[C@@H](CC(C)C)C(=O)N[C@H](C(=O)N[C@@H](CCCNC(=N)N)C(=O)NCC(=O)N[C@@H](CCCNC(=N)N)C(=O)NCC(=O)O)C(C)C)[C@@H](C)CC)C(=O)O", "note": "[Liraglutide, reference compound]", "values": [
      {"measurement": "Relative expression of α-SMA (α-SMA/β-actin, %)", "value": 78.4, "unit": "%"}
    ]}
  ]
}
